# From the supplement of paper PMC8728848
# Some of the results follow.
# B1: CBP21 (Serratia marcescens), O83009 (protein)
# chain: MNKTSRTLLSLGLLSAAMFGVSQQANAHGYVESPASRAYQCKLQLNTQCGSVQYEPQSVEGLKGFPQAGPADGHIASADKSTFFELDQQTPTRWNKLNLKTGPNSFTWKLTARHSTTSWRYFITKPNWDASQPLTRASFDLTPFCQFNDGGAIPAAQVTHQCNIPADRSGSHVILAVWDIADTANAFYQAIDVNLSK
# Experiments:
# Experiment in all cases: glycan array binding signal (z-score within array); higher = stronger binding
# Conditions in all cases: glycan notation: IUPAC condensed, linker removed
# [1] = biological target: GlcNAc(b1-4)GlcNAc(b1-4)GlcNAc(b1-4)GlcNAc(b1-4)GlcNAc
# In short: (§1)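 Glycan array data came from 3228 arrays in the Consortium for Functional Glycomics database, and only arrays with an available protein sequence were kept. Glycan names were put into IUPAC-condensed notation, and columns mapping to the same glycan were averaged. The binding signal is a within-array Z-score, averaged across arrays of one protein sequence run at different concentrations or buffers and across linkers. A negative Z-score can be read as non-binding.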
# [2] = biological target: GlcNAc(b1-4)GlcNAc(b1-4)GlcNAc(b1-4)GlcNAc(b1-4)GlcNAc(b1-4)GlcNAc
# In short: as §1
# [3] = biological target: GlcNAc(b1-4)[GlcNAc(b1-6)]GalNAc
# In short: as §1
# [4] = biological target: GlcNAc(b1-6)Gal(b1-4)GlcNAc
# In short: as §1
# GlcNAc(b1-6)GalNAc = biological target: GlcNAc(b1-6)GalNAc
# In short: as §1
# [5] = biological target: GlcNAc6S(b1-3)Gal(b1-4)GlcNAc
# In short: as §1
# Kdn(a2-3)Gal(b1-3)GalNAc = biological target: Kdn(a2-3)Gal(b1-3)GalNAc
# In short: as §1
# Kdn(a2-3)Gal(b1-3)GlcNAc = biological target: Kdn(a2-3)Gal(b1-3)GlcNAc
# In short: as §1
# Kdn(a2-3)Gal(b1-4)Glc = biological target: Kdn(a2-3)Gal(b1-4)Glc
# In short: as §1
# Kdn(a2-3)Gal(b1-4)GlcNAc = biological target: Kdn(a2-3)Gal(b1-4)GlcNAc
# In short: as §1
# [6] = biological target: Kdn(a2-3)Gal(b1-4)[Fuc(a1-3)]GlcNAc
# In short: as §1
# Kdn(a2-6)Gal(b1-4)GlcNAc = biological target: Kdn(a2-6)Gal(b1-4)GlcNAc
# In short: as §1
# [7] = biological target: Man(a1-2)Man(a1-2)Man(a1-3)Man
# In short: as §1
# [8] = biological target: Man(a1-2)Man(a1-2)Man(a1-6)[Man(a1-3)]Man
# In short: as §1
# Man(a1-2)Man(a1-3)Man = biological target: Man(a1-2)Man(a1-3)Man
# In short: as §1
# [9] = biological target: Man(a1-2)Man(a1-3)[Man(a1-2)Man(a1-6)]Man
# In short: as §1
# [10] = biological target: Man(a1-2)Man(a1-3)[Man(a1-2)Man(a1-6)]Man(a1-6)[Man(a1-2)Man(a1-2)Man(a1-3)]Man
# In short: as §1
# [11] = biological target: Man(a1-2)Man(a1-3)[Man(a1-2)Man(a1-6)]Man(a1-6)[Man(a1-2)Man(a1-2)Man(a1-3)]Man(b1-4)GlcNAc(b1-4)GlcNAc
# In short: as §1
# [12] = biological target: Man(a1-2)Man(a1-3)[Man(a1-6)]Man(a1-6)[Man(a1-2)Man(a1-3)]Man(b1-4)GlcNAc(b1-4)GlcNAc
# In short: as §1
# [13] = biological target: Man(a1-2)Man(a1-6)[Man(a1-3)]Man(a1-6)[Man(a1-2)Man(a1-2)Man(a1-3)]Man
# In short: as §1
# [14] = biological target: Man(a1-2)Man(a1-6)[Man(a1-3)]Man(a1-6)[Man(a1-2)Man(a1-2)Man(a1-3)]Man(b1-4)GlcNAc(b1-4)GlcNAc
# In short: as §1
# Man(a1-3)[Man(a1-6)]Man = biological target: Man(a1-3)[Man(a1-6)]Man
# In short: as §1
# [15] = biological target: Man(a1-3)[Man(a1-6)]Man(a1-6)[Man(a1-2)Man(a1-3)]Man(b1-4)GlcNAc(b1-4)GlcNAc
# In short: as §1
# [16] = biological target: Man(a1-3)[Man(a1-6)]Man(a1-6)[Man(a1-3)]Man
# In short: as §1
# [17] = biological target: Man(a1-3)[Man(a1-6)]Man(a1-6)[Man(a1-3)]Man(b1-4)GlcNAc(b1-4)GlcNAc
# In short: as §1
# [18] = biological target: Man(a1-3)[Man(a1-6)]Man(b1-4)GlcNAc(b1-4)GlcNAc
# In short: as §1
# [19] = biological target: Man(a1-3)[Man(a1-6)]Man(b1-4)GlcNAc(b1-4)[Fuc(a1-6)]GlcNAc
# In short: as §1
# Man(a1-6)Man = biological target: Man(a1-6)Man
# In short: as §1
# Man(b1-4)GlcNAc = biological target: Man(b1-4)GlcNAc
# In short: as §1
# MurNAc(b1-4)GlcNAc = biological target: MurNAc(b1-4)GlcNAc
# In short: as §1
# Neu5Ac(a2-3)Gal = biological target: Neu5Ac(a2-3)Gal
# In short: as §1
# [20] = biological target: Neu5Ac(a2-3)Gal(b1-3)GalNAc
# In short: as §1
# [21] = biological target: Neu5Ac(a2-3)Gal(b1-3)GalNAc(b1-3)Gal(a1-4)Gal(b1-4)Glc
# In short: as §1
# [22] = biological target: Neu5Ac(a2-3)Gal(b1-3)GalNAc(b1-4)Gal(b1-4)Glc
# In short: as §1
# [23] = biological target: Neu5Ac(a2-3)Gal(b1-3)GalNAc(b1-4)[Neu5Ac(a2-3)]Gal(b1-4)Glc
# In short: as §1
# [24] = biological target: Neu5Ac(a2-3)Gal(b1-3)GalNAc(b1-4)[Neu5Ac(a2-8)Neu5Ac(a2-3)]Gal(b1-4)Glc
# In short: as §1
# [25] = biological target: Neu5Ac(a2-3)Gal(b1-3)GalNAc6S
# In short: as §1
# [26] = biological target: Neu5Ac(a2-3)Gal(b1-3)GlcNAc
# In short: as §1
# [27] = biological target: Neu5Ac(a2-3)Gal(b1-3)GlcNAc(b1-2)Man
# In short: as §1
# [28] = biological target: Neu5Ac(a2-3)Gal(b1-3)GlcNAc(b1-2)Man(a1-3)[GlcNAc(b1-4)][Neu5Ac(a2-3)Gal(b1-3)GlcNAc(b1-2)Man(a1-6)]Man(b1-4)GlcNAc(b1-4)GlcNAc
# In short: as §1
# [29] = biological target: Neu5Ac(a2-3)Gal(b1-3)GlcNAc(b1-2)Man(a1-3)[Neu5Ac(a2-3)Gal(b1-3)GlcNAc(b1-2)Man(a1-6)]Man(b1-4)GlcNAc(b1-4)GlcNAc
# In short: as §1
# [30] = biological target: Neu5Ac(a2-3)Gal(b1-3)GlcNAc(b1-2)[Neu5Ac(a2-3)Gal(b1-3)GlcNAc(b1-4)]Man(a1-6)[Neu5Ac(a2-3)Gal(b1-3)GlcNAc(b1-2)Man(a1-3)]Man(b1-4)GlcNAc(b1-4)GlcNAc
# In short: as §1
# [31] = biological target: Neu5Ac(a2-3)Gal(b1-3)GlcNAc(b1-3)Gal(b1-3)GlcNAc
# In short: as §1
# [32] = biological target: Neu5Ac(a2-3)Gal(b1-3)GlcNAc(b1-3)Gal(b1-4)GlcNAc
# In short: as §1
# [33] = biological target: Neu5Ac(a2-3)Gal(b1-3)GlcNAc(b1-3)GalNAc
# In short: as §1
binder,measurement,setting,value
B1,glycan array binding signal (z-score),[1],0.729
same,glycan array binding signal (z-score),[2],-0.98
same,glycan array binding signal (z-score),[3],-0.294
same,glycan array binding signal (z-score),[4],-0.448
same,glycan array binding signal (z-score),GlcNAc(b1-6)GalNAc,-0.697
same,glycan array binding signal (z-score),[5],0.252
same,glycan array binding signal (z-score),Kdn(a2-3)Gal(b1-3)GalNAc,-0.446
same,glycan array binding signal (z-score),Kdn(a2-3)Gal(b1-3)GlcNAc,0.001
same,glycan array binding signal (z-score),Kdn(a2-3)Gal(b1-4)Glc,-1.36
same,glycan array binding signal (z-score),Kdn(a2-3)Gal(b1-4)GlcNAc,-0.42
same,glycan array binding signal (z-score),[6],1.04
same,glycan array binding signal (z-score),Kdn(a2-6)Gal(b1-4)GlcNAc,-1.1
same,glycan array binding signal (z-score),[7],-0.437
same,glycan array binding signal (z-score),[8],0.017
same,glycan array binding signal (z-score),Man(a1-2)Man(a1-3)Man,-0.341
same,glycan array binding signal (z-score),[9],-1.5
same,glycan array binding signal (z-score),[10],-1.08
same,glycan array binding signal (z-score),[11],2.53
same,glycan array binding signal (z-score),[12],-0.367
same,glycan array binding signal (z-score),[13],-0.856
same,glycan array binding signal (z-score),[14],0.074
same,glycan array binding signal (z-score),Man(a1-3)[Man(a1-6)]Man,-0.35
same,glycan array binding signal (z-score),[15],1.13
same,glycan array binding signal (z-score),[16],-0.45
same,glycan array binding signal (z-score),[17],0.328
same,glycan array binding signal (z-score),[18],-0.38
same,glycan array binding signal (z-score),[19],-0.807
same,glycan array binding signal (z-score),Man(a1-6)Man,-0.664
same,glycan array binding signal (z-score),Man(b1-4)GlcNAc,0.685
same,glycan array binding signal (z-score),MurNAc(b1-4)GlcNAc,0.265
same,glycan array binding signal (z-score),Neu5Ac(a2-3)Gal,0.034
same,glycan array binding signal (z-score),[20],-1.23
same,glycan array binding signal (z-score),[21],1.24
same,glycan array binding signal (z-score),[22],0.117
same,glycan array binding signal (z-score),[23],-0.874
same,glycan array binding signal (z-score),[24],-0.909
same,glycan array binding signal (z-score),[25],1.63
same,glycan array binding signal (z-score),[26],-0.85
same,glycan array binding signal (z-score),[27],0.824
same,glycan array binding signal (z-score),[28],-0.106
same,glycan array binding signal (z-score),[29],-0.241
same,glycan array binding signal (z-score),[30],0.279
same,glycan array binding signal (z-score),[31],0.18
same,glycan array binding signal (z-score),[32],0.174
same,glycan array binding signal (z-score),[33],0.76

# Reformatted with tabs: entries from further up.
binder	measurement	setting	value
B1	glycan array binding signal (z-score)	[1]	0.729
same	glycan array binding signal (z-score)	[2]	-0.98
same	glycan array binding signal (z-score)	[3]	-0.294
